# Record: PubChem BioAssay AID686938 (Drosophila RNAi Screening Center, 2013)
# Test: 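Looking for CRAC channel components and the factors controlling them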 (primary screen)
# Cell system: Drosophila S2R+ cells
# Reagent: long dsRNA against Drosophila genes, about 0.25 µg dsRNA per well, roughly 10,000 cells
# Duration: 5 days of knock-down before the calcium assay
# Conditions: thapsigargin (SERCA pump blocker) to empty calcium stores; entry signal taken 4 min after adding it
# Detection: 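Per-well fluo-4 fluorescence in two replicates, unnormalised, measured in resting cells and 4 min after store depletion by the SERCA blocker thapsigargin; ratio of the two present in few wells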
# Direction: calcium entry signal: higher = stronger calcium signal after store depletion; resting calcium signal: higher = higher resting calcium signal
# Active means: 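Hit if the duplicate-averaged plate z-score for entry over resting signal is under −3; wells with weak total dye signal (Fmax z < −2) or more than 5 off-targets removed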
# Calls: active = strongly reduced calcium entry; inactive = no strong reduction
# In all, the deposit lists about 23,000 reagents; below is a random part of those with a known target gene and a result. Of all reagents, 75 (0.33%) were called active. 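Raw plate signals without normalisation; calls rest on plate z-scores that were not deposited; ratio present for only 364 wells.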 Entries without a mark were called inactive. Not given: the dose of the treatment.
predicted target,DRSC id,"calcium entry signal, replicate 1 (fluorescence units)","calcium entry signal, replicate 2 (fluorescence units)","resting calcium signal, replicate 1 (fluorescence units)","resting calcium signal, replicate 2 (fluorescence units)"
strat (GeneID 34142),DRSC03069,4.55e7,8.19e7,2.09e7,3.26e7
PGRP-SC2 (GeneID 35862),DRSC06481,3.98e7,4.99e7,1.85e7,1.89e7
DEF8 (GeneID 39381),DRSC09840,4.46e7,3.89e7,3.10e7,1.63e7
CG12546 (GeneID 40483),DRSC11676,2.16e7,3.38e7,1.12e7,1.67e7
CG17145 (GeneID 40215),DRSC10247,2.08e7,3.65e7,1.04e7,1.61e7
Ric (GeneID 36776),DRSC07532,2.84e7,3.80e7,1.29e7,1.72e7
Crg-1 (GeneID 43900),DRSC22882,4.39e7,2.49e7,2.10e7,1.24e7
CG7166 (GeneID 40401),DRSC11809,3.40e7,4.49e7,1.64e7,1.98e7
sug (GeneID 36424),DRSC06855,4.55e7,4.60e7,1.78e7,2.06e7
Kpc1 (GeneID 41826),DRSC16107,3.49e7,5.20e7,1.49e7,2.03e7
bab1 (GeneID 38116),DRSC08379,6.18e7,2.00e7,3.91e7,1.01e7
bab1 (GeneID 38116),DRSC08709,1.81e7,2.63e7,9.50e6,1.18e7
bab1 (GeneID 38116),DRSC21882,2.80e7,5.02e7,1.33e7,2.24e7
Rdh1 (GeneID 35708),DRSC06812,2.68e7,1.94e7,1.22e7,8.83e6
Srrm1 (GeneID 39483),DRSC09835,3.42e7,4.51e7,1.74e7,1.96e7
lds (GeneID 45894),DRSC16988,5.09e7,3.30e7,2.17e7,1.56e7
CG7564 (GeneID 39956),DRSC10880,3.51e7,4.58e7,1.68e7,1.72e7
crok (GeneID 34646),DRSC02593,3.68e7,2.46e7,1.58e7,1.20e7
crok (GeneID 34646),DRSC21349,3.73e7,3.14e7,1.99e7,1.50e7
Wdr62 (GeneID 33367),DRSC00081,3.28e7,4.33e7,1.82e7,1.93e7
Wdr62 (GeneID 33367),DRSC00082,3.42e7,4.32e7,1.80e7,1.92e7
Wdr62 (GeneID 33367),DRSC00701,4.17e7,,2.51e7,
Wdr62 (GeneID 33367),DRSC21913,3.12e7,3.94e7,1.56e7,2.21e7
CG14443 (GeneID 31595),DRSC17936,2.79e7,4.33e7,1.33e7,1.92e7

Entries listed so far whose gene name starts with B or b (3):
predicted target,DRSC id,"calcium entry signal, replicate 1 (fluorescence units)","calcium entry signal, replicate 2 (fluorescence units)","resting calcium signal, replicate 1 (fluorescence units)","resting calcium signal, replicate 2 (fluorescence units)"
bab1 (GeneID 38116),DRSC08379,6.18e7,2.00e7,3.91e7,1.01e7
bab1 (GeneID 38116),DRSC08709,1.81e7,2.63e7,9.50e6,1.18e7
bab1 (GeneID 38116),DRSC21882,2.80e7,5.02e7,1.33e7,2.24e7
